{"source": "ChEMBL document CHEMBL1143626", "about": "“Morphiceptin analogues containing a dipeptide mimetic structure: an investigation on the bioactive topology at the mu-receptor” (J Med Chem, 2005)", "species_on_record": "Cavia porcellus", "test": "Inhibition of isolated guinea pig ileum contraction induced by electrical stimulation", "assay_type": "functional", "method_in_brief": "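Electrical field stimulation was applied after 30-40 min equilibration: train 100 ms, pulse width 1 ms, pulse interval 10 ms, supramaximal 20 V. Compounds were added cumulatively at 3-fold steps (0.1 nM to 1 µM), with parallel runs in 10 nM naloxone. Isotonic tension was recorded as % of control […]. Efficacy is the maximal inhibition; EC50 is the half-maximal concentration. Mean ± SEM, 4-6 experiments.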", "data": [{"molecule": "CN1CC[C@]23c4c5ccc(O)c4O[C@H]2[C@@H](O)C=C[C@H]3[C@H]1C5", "note": "[MORPHINE]", "values": [{"measurement": "EC50", "result": 127, "unit": "nM"}]}]}
